# Screening data

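Malaria parasite (P. falciparum) lines kept in red blood cells; parasite DNA is measured by SYBR Green fluorescence after lysis, 72 h after compound addition. Each compound was titrated across a series from about 0.000037 to 29 µM. The number is the fitted AC50, the concentration giving a half-maximal change in signal; a lower value means higher potency, whether the curve shows a decrease or an increase. Calls follow the curve class and fit quality: every row here is inconclusive, covering signal-raising curves and weak, poorly fitted, partial or highest-dose-only inhibition curves.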

Values are in nM. Every entry below has the call inconclusive. Only part of the assay is shown, chiefly results filed as inconclusive. Potencies fitted to partial, single-point or poorly fitting curves are rough.

{"structure": "Oc1cc[c]([Hg][Cl])cc1", "tested on / at": "CP262", "potency (nM)": "15101", "curve": "inhibitor, single point"}
{"structure": "Oc1cc[c]([Hg][Cl])cc1", "tested on / at": "CP265", "potency (nM)": "11220", "curve": "inhibitor, single point"}
{"structure": "Oc1cc[c]([Hg][Cl])cc1", "tested on / at": "PC15", "potency (nM)": "8912", "curve": "inhibitor, partial curve"}
{"structure": "Oc1cc[c]([Hg][Cl])cc1", "tested on / at": "P94_40", "potency (nM)": "10000", "curve": "inhibitor, single point"}
{"structure": "Oc1cc[c]([Hg][Cl])cc1", "tested on / at": "CP203", "potency (nM)": "19011", "curve": "inhibitor, partial curve, poor fit"}
{"structure": "Oc1cc[c]([Hg][Cl])cc1", "tested on / at": "DIV30", "potency (nM)": "15101", "curve": "inhibitor, single point"}
{"structure": "Oc1cc[c]([Hg][Cl])cc1", "tested on / at": "C2A", "potency (nM)": "10000", "curve": "inhibitor, single point"}
{"structure": "Oc1cc[c]([Hg][Cl])cc1", "tested on / at": "CP194", "potency (nM)": "13459", "curve": "inhibitor, single point"}
{"structure": "Oc1cc[c]([Hg][Cl])cc1", "tested on / at": "CP266", "potency (nM)": "19011", "curve": "inhibitor, partial curve, poor fit"}
{"structure": "Oc1cc[c]([Hg][Cl])cc1", "tested on / at": "CP335", "potency (nM)": "6746", "curve": "inhibitor, partial curve, poor fit"}
{"structure": "Oc1cc[c]([Hg][Cl])cc1", "tested on / at": "CP329", "potency (nM)": "10690", "curve": "inhibitor, single point"}
{"structure": "Oc1cc[c]([Hg][Cl])cc1", "tested on / at": "AS120", "potency (nM)": "11220", "curve": "inhibitor, single point"}
{"structure": "Oc1cc[c]([Hg][Cl])cc1", "tested on / at": "CP268", "potency (nM)": "16944", "curve": "inhibitor, single point"}
{"structure": "Oc1cc[c]([Hg][Cl])cc1", "tested on / at": "CP315", "potency (nM)": "21331", "curve": "inhibitor, single point"}
{"structure": "Oc1cc[c]([Hg][Cl])cc1", "tested on / at": "CP260", "potency (nM)": "14125", "curve": "inhibitor, single point"}
{"structure": "Oc1cc[c]([Hg][Cl])cc1", "tested on / at": "CP215", "potency (nM)": "15101", "curve": "inhibitor, single point"}
{"structure": "Oc1cc[c]([Hg][Cl])cc1", "tested on / at": "CP192", "potency (nM)": "16944", "curve": "inhibitor, single point"}
{"structure": "Oc1cc[c]([Hg][Cl])cc1", "tested on / at": "JCK", "potency (nM)": "10000", "curve": "inhibitor, single point"}
{"structure": "Oc1cc[c]([Hg][Cl])cc1", "tested on / at": "ATS189", "potency (nM)": "17782", "curve": "inhibitor, single point"}
{"structure": "Oc1cc[c]([Hg][Cl])cc1", "tested on / at": "CP291", "potency (nM)": "11995", "curve": "inhibitor, single point"}
{"structure": "Oc1cc[c]([Hg][Cl])cc1", "tested on / at": "CP185", "potency (nM)": "11220", "curve": "inhibitor, partial curve"}
{"structure": "Oc1cc[c]([Hg][Cl])cc1", "tested on / at": "CP325", "potency (nM)": "19011", "curve": "inhibitor, single point"}
{"structure": "Oc1cc[c]([Hg][Cl])cc1", "tested on / at": "CP297", "potency (nM)": "11995", "curve": "inhibitor, partial curve"}
{"structure": "CN(C)CCN1C(=O)c2ccccc2N(C)c2ccccc21", "tested on / at": "7G8", "potency (nM)": "7943", "curve": "inhibitor, single point"}
{"structure": "CN(C)CCN1C(=O)c2ccccc2N(C)c2ccccc21", "tested on / at": "N140", "potency (nM)": "14125", "curve": "inhibitor, partial curve"}
{"structure": "CN(C)CCN1C(=O)c2ccccc2N(C)c2ccccc21", "tested on / at": "CP217", "potency (nM)": "11220", "curve": "inhibitor, partial curve"}
{"structure": "CN(C)CCN1C(=O)c2ccccc2N(C)c2ccccc21", "tested on / at": "TAB165", "potency (nM)": "8912", "curve": "inhibitor, partial curve"}
{"structure": "CN(C)CCN1C(=O)c2ccccc2N(C)c2ccccc21", "tested on / at": "SC27B", "potency (nM)": "10000", "curve": "inhibitor, single point"}
{"structure": "CN(C)CCN1C(=O)c2ccccc2N(C)c2ccccc21", "tested on / at": "DIV14", "potency (nM)": "13459", "curve": "inhibitor, single point"}

For reference, 3 entries once more:

* CN(C)CCN1C(=O)c2ccccc2N(C)c2ccccc21 [SC27B] : potency 10000 nM (inhibitor, single point)
* Oc1cc[c]([Hg][Cl])cc1 [CP291] : potency 11995 nM (inhibitor, single point)
* Oc1cc[c]([Hg][Cl])cc1 [CP260] : potency 14125 nM (inhibitor, single point)

Source: PubChem BioAssay AID504749 (NCATS, 2011).